Measurements reported in PubChem BioAssay AID2551 (National Center for Advancing Translational Sciences (NCATS), 2010).
About 17,000 (5.5%) of roughly 310,000 compounds were called active. Inconclusive results, whose numbers are uncertain, are shown with a selection of clear calls. Calls follow the shape of the dose curve; as a rule, active = well fitted inhibition curve with a large enough effect; inconclusive = small, poorly fitted or top-dose-only effect, or effect the other way; inactive = no such curve, though single readings can be large or run the other way. Potencies of inconclusive entries are doubtful fits and often do not repeat.

By UniProt entry, the sequences of proteins in these tests, tags left out. Where a name states a change or a piece, a line headed by the entry shows the natural chain unless it says otherwise.
UniProt P51450: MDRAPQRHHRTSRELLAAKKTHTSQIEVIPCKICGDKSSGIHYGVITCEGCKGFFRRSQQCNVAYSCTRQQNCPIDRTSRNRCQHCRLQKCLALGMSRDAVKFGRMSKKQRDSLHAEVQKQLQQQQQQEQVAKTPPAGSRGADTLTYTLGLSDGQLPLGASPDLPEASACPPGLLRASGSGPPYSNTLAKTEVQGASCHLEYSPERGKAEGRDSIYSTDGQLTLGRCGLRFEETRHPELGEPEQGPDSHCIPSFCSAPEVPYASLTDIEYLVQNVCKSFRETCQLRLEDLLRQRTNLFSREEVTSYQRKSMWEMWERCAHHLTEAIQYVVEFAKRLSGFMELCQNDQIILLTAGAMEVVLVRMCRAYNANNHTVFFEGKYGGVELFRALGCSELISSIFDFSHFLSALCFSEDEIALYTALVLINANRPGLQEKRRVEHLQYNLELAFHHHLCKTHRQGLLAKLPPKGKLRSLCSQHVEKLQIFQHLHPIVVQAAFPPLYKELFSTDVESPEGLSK

These molecules were tested against Nuclear receptor ROR-gamma (Mus musculus) (UniProt P51450) (assay: qHTS for inhibitors of ROR gamma transcriptional activity). Settings: Drosophila S2 Gal4-RORgamma UAS-luciferase reporter, 20 h; activity change, negative = inhibition: at 53.6 µM (top of the series).
Summary of the method: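 Compounds are pin-transferred onto Drosophila Schneider cells expressing a copper-inducible Gal4–ROR gamma transactivation domain fusion. After 1 hr, copper sulfate is added to 700 uM final; luciferase is read 20 hr later.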
% is scaled to controls: 0 for no effect and ±100 for the full control effect; potency is read from the fitted curve at half-maximal effect.
Also: nearly all actives have a fitted effect of over 60% in size.

Structure (SMILES) | activity change, negative = inhibition | Potency
CCc1nnc(NC(=O)CSc2nnnn2-c2cccc(C(=O)OC)c2)s1 | inactive: 0% | 
Cn1c(-c2c(N)n(C3CCCC3)c3nc4ccccc4nc23)nc2ccccc21 |  | active: 3.55 µM
Cc1cccc2sc(N(CCCN(C)C)C(=O)c3ccc(C(=O)c4ccccc4)cc3)nc12 |  | inconclusive: 22.4 µM [inhibitor, single point]
Cc1ccc(Nc2cc(C)c3c(O)cccc3n2)cc1C |  | inconclusive: 15.8 µM [inhibitor, single point]
COc1ccccc1-c1n[nH]c(=S)n1Cc1ccccc1 |  | inconclusive: 35.5 µM [inhibitor, single point]
CCCn1c(SCC(=O)Nc2cccc(Cl)c2Cl)n[nH]c1=O | inactive: -6.22% | 
CCCOc1ccc(C(=O)NNC(=S)NC(=O)c2cccs2)cc1 |  | active: 8.91 µM
Cc1cnc(NC(=O)CC2CCCC2)s1 |  | inconclusive: 10 µM [inhibitor, partial curve]
Cc1cc(C)c(/C=N/NC(=O)c2nnn(-c3nonc3N)c2CN2CCC(C)CC2)c(C)c1 |  | inconclusive: 35.5 µM [inhibitor, single point]
O=C(CN1CCN(c2ccccc2)CC1)Nc1c(C(=O)C2CC2)oc2ccccc12 |  | inconclusive: 22.4 µM [inhibitor, single point]
CCN(CC)CCCNc1nc(-n2nc(C)cc2C)nc2sc3c(c12)CC(C)(C)OC3 |  | active: 12.6 µM
S=c1nc(-c2ccccc2)n(Cc2ccco2)c2c1CCCC2 |  | active: 17.8 µM
C/C(=N\OCC(=O)Nc1c(C)cc(C)cc1C)c1ccc2c(c1)OCCO2 |  | inconclusive: 15.8 µM [activator, single point]
Cc1ccc(/C=C/c2ccc3cccc(O)c3n2)s1 |  | active: 14.1 µM
CCCCCCCCCCOC(=O)Cn1c(COc2ccc(C)cc2)[n+](C)c2ccccc21 |  | inconclusive: 12.6 µM [inhibitor, single point]
N#Cc1c(N)n(-c2ccc(O)cc2)c2nc3ccccc3nc12 | inactive: -7.19% | 
CCc1cccc(OCC2Cn3c(nc4c3c(=O)n(C)c(=O)n4C)O2)c1 (stereo not drawn) |  | inconclusive: 35.5 µM [activator, single point]
O=C(O)c1ccccc1Nc1ccc(OC(F)F)cc1 |  | inconclusive: 10 µM [activator, partial curve]
CC(C)(C)c1ccc(S(=O)(=O)N2CCCCC2C(=O)NCc2ccccn2)cc1 (stereo not drawn) |  | inconclusive: 35.5 µM [inhibitor, single point]
CN(Cc1ccccc1)S(=O)(=O)c1cccc(C(=O)O)c1 | inactive: -14.5% | 
O=C(NCc1ccccc1)c1ccc(COCC(F)(F)F)o1 |  | inconclusive: 35.5 µM [activator, single point]
CS(=O)(=O)N1CCN(C(=O)c2cc(-c3ccccc3)nc3ccccc23)CC1 | inactive: -9.38% | 
CCn1c(SCC(=O)N/N=C/C=C\c2ccco2)nc2ccccc21 |  | inconclusive: 12.6 µM [inhibitor, single point]
O=C(CN1CCC(NC(=O)c2cccc(F)c2)CC1)Nc1ccc(Br)cc1 |  | inconclusive: 35.5 µM [activator, single point]

Three compounds out of the list, sorted by molecular weight, descending.
Structure (SMILES) | activity change, negative = inhibition | Potency
CCc1nnc(NC(=O)CSc2nnnn2-c2cccc(C(=O)OC)c2)s1 | inactive: 0% | 
O=C(CN1CCN(c2ccccc2)CC1)Nc1c(C(=O)C2CC2)oc2ccccc12 |  | inconclusive: 22.4 µM [inhibitor, single point]
Cc1ccc(/C=C/c2ccc3cccc(O)c3n2)s1 |  | active: 14.1 µM

Later entries.

Structure (SMILES) | activity change, negative = inhibition | Potency
Cn1c(=O)c(C(=O)COC(=O)c2cc(C(F)(F)F)nc3c(C(F)(F)F)cccc23)c(N)n(Cc2ccccc2)c1=O | inactive: -15.8% | 
CC(C)(C)NC(=S)N/N=C/c1c(Cl)cccc1Cl |  | active: 4.47 µM
Cc1ccc2nc(SCc3cn4c(C)cc(C)nc4n3)[nH]c2c1 |  | inconclusive: 7.94 µM [activator, partial curve]
S=C1NC2=C(CCCC2=C2SCCS2)C(c2ccccc2)N1 (stereo not drawn) |  | active: 7.08 µM
CC(=O)Nc1cccc(NC(=O)C(=O)c2cn(CC(=O)N3CCCCC3)c3ccccc23)c1 | inactive: 36.4% | 
CC(C)c1ccc(C2CC(c3ccc(Br)cc3)=NN2C(N)=S)cc1 (stereo not drawn) |  | active: 1.78 µM
Cc1ccc(N2CCN(S(=O)(=O)c3ccc4c(c3)NC(=O)C(C)C(=O)N4)CC2C)cc1 (stereo not drawn) |  | inconclusive: 11.2 µM [activator, single point]
COc1ccc(N/N=C(\C#N)C(=N)SCc2ccccc2)cc1 |  | inconclusive: 20 µM [inhibitor, single point]
CC1=C(C(=O)Nc2ccc(Cl)cc2C(=O)N2CCC(C(N)=O)CC2)SCCO1 | inactive: -2.72% | 
CC1CCCN(c2nc3nonc3nc2N2CCCC(C)C2)C1 (stereo not drawn) |  | inconclusive: 14.1 µM [activator, single point]
CN(c1cccc(NC(=O)CN(c2ccc(Cl)c(Cl)c2)S(=O)(=O)c2ccccc2)c1)S(C)(=O)=O |  | inconclusive: 12.6 µM [activator, single point]
CN1C(=O)NC(c2ccc(O)cc2)C(C(=O)c2cccs2)C1(O)C(F)(F)F (stereo not drawn) | inactive: -44% | 
CC1(C)CC(=O)/C(=C(\O)CCCN2C(=O)c3ccccc3C2=O)C(=NCCO)C1 | inactive: 0.311% | 
O=C(COc1ccc(F)cc1)NN1C(=O)CSC1=S |  | inconclusive: 17.8 µM [inhibitor, single point]
Cc1ccccc1Nc1nc(-c2sc(NC(=O)c3ccc([N+](=O)[O-])cc3)nc2C)cs1 | inactive: -17.2% | 
c1ccc(-c2nc3nonc3nc2-c2ccccc2)cc1 |  | active: 11.2 µM
Cc1cc(C)cc(NC(=O)CSc2nc3ccccc3nc2N2CCCCC2)c1 |  | inconclusive: 8.91 µM [inhibitor, partial curve]
CCOc1ccc(S(=O)(=O)N2CCCC(C(=O)N3CCC(C(N)=O)CC3)C2)cc1Cl (stereo not drawn) |  | inconclusive: 11.2 µM [activator, partial curve]
Cc1cccc(Nc2cc(Cl)nc(SCC(=O)O)n2)c1C |  | inactive
Cc1ccc(-c2nn(-c3ccccc3)c3[nH]c(=O)c(CNCCN(C)C)cc23)cc1 |  | active: 3.98 µM
CCOc1ccc(Nc2nc(Cl)nc(NCCO)n2)cc1 |  | inconclusive: 11.2 µM [activator, partial curve]
O=C(NC(=S)Nc1cc([N+](=O)[O-])ccc1O)c1ccc2c(c1)OCO2 |  | active: 3.98 µM
Cc1cc(C(=O)Nc2cnn(Cc3ccc(Cl)cc3Cl)c2)no1 | inactive: 25.9% | 
Fc1ccc(CSc2nncn2NCc2ccccc2)cc1 |  | inconclusive: 35.5 µM [activator, single point]
